Test results reported in article PMC8970680.
No constants are given. Whether binding was seen depends on the method and setting. In cells and extracts the contact can be indirect. Some binding calls cover weakened binding; strength is not graded here.

By UniProt entry, the sequences of proteins in these tests, tags left out. Residues count along the entry.
UniProt Q62656, residues 25-2316: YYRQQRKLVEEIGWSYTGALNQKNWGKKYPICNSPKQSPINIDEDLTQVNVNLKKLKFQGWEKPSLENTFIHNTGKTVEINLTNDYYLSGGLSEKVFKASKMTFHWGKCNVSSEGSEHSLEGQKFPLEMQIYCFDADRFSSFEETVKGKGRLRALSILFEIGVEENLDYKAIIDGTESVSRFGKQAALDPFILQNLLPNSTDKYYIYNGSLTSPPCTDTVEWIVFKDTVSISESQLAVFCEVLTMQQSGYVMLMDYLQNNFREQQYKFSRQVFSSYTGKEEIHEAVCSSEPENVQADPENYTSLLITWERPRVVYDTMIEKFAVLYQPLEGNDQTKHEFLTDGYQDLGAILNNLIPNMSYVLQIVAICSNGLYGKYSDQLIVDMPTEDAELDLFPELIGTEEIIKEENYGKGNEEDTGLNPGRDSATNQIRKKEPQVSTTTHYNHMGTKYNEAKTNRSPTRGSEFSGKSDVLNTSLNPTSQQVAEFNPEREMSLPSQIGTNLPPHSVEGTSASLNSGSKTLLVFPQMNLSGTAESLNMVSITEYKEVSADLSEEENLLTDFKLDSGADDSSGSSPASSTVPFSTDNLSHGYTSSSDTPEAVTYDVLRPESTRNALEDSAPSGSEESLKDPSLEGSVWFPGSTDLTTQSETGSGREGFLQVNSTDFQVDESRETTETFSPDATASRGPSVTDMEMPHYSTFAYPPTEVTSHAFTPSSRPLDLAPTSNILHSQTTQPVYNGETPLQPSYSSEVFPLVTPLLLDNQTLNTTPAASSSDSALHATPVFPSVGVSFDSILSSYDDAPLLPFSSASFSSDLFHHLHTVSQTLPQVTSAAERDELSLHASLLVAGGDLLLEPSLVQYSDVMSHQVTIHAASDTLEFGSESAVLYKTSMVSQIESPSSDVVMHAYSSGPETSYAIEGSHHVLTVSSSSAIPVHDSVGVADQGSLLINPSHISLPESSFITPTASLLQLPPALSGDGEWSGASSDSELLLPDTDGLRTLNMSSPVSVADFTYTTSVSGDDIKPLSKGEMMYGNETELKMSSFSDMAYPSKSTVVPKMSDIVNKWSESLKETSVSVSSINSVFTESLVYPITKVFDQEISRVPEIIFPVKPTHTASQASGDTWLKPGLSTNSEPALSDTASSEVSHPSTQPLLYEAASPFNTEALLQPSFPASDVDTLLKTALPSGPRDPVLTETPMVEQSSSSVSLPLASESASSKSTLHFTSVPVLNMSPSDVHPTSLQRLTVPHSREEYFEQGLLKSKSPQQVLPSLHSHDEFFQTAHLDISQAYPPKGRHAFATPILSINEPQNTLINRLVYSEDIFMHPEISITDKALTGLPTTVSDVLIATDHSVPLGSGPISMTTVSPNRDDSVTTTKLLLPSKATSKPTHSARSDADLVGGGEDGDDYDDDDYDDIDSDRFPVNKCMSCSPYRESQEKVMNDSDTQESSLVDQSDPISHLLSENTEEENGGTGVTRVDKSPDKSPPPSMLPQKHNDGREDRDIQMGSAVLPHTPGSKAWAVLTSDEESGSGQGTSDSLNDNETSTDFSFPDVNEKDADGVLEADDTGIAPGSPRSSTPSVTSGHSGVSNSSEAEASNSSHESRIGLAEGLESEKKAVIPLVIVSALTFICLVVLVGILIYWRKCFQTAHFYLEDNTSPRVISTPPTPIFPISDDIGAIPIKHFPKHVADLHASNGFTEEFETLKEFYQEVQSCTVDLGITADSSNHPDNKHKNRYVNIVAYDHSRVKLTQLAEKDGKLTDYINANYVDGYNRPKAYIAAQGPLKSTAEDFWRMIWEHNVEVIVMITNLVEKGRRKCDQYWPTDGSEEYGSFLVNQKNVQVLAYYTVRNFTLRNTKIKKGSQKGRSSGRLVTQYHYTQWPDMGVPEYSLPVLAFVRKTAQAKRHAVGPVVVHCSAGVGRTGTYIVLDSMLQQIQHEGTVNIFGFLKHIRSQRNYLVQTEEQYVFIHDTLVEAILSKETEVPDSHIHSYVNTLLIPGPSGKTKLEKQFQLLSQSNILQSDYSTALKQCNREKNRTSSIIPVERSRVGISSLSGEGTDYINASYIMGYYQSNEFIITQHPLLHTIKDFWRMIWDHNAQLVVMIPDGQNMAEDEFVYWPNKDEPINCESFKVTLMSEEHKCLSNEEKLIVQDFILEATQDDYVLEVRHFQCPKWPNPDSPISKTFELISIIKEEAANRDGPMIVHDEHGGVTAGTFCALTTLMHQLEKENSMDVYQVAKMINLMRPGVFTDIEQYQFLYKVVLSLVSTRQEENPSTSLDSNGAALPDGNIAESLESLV

T1: pleiotrophin (rat (endogenous in primary rat differentiating immature OLs)) (UniProt P63090)
T1 sequence: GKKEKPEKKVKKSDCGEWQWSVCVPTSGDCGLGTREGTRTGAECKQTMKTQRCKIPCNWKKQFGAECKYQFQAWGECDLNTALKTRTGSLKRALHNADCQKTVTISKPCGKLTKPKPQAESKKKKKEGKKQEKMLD

T2: pleiotrophin (rat (endogenous in primary rat differentiating immature OLs)), P63090
T2 chain: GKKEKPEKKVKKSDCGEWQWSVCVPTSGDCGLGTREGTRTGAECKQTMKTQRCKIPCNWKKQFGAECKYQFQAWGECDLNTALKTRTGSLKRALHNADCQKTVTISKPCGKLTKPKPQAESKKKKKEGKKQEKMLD


Legend:
[1] = target: T1, pleiotrophin (rat (endogenous in primary rat differentiating immature OLs)); assay: co-IP; endogenous proteins in lysate of primary rat differentiating immature OLs; precipitated with PTN (2 ug antibody overnight, Protein A/G Plus agarose beads, 4°C); co-IP buffer 50 mM Tris-HCl pH 7.5, 150 mM NaCl, 1% Triton X-100, 1 mM EDTA; blots for the receptors
[2] = target: T2, pleiotrophin (rat (endogenous in …)); assay: as above; conditions: remark: other sources report otherwise

Row | binding [1] | binding [2] | Molecule
1 | no binding |  | LRP1 (from UniProt G3V928 20-4545) (receptor)
2 | binds |  | protein tyrosine phosphatase receptor type Z1 (from UniProt Q62656 25-2316)
3 |  | no binding | syndecan 3, P33671 45-442 (receptor) AQRWRNENFERPVDLEGSGDDDSFPDDELDDLYSGSGSGYFEQESGLETAMRFIPDIALAAPTAPAMLPTTVIQPVDTPFEELLSEHPGPEPVTSPPLVTEVTEVVEEPSQRATTISTTTSTTAATTTGAPTMATAPATAATTAPSTPAAPPATATTADIRTTGIQGLLPLPLTTAATAKATTPAVPSPPTTVTTLDTEAPTPRLVNTATSRPRALPRPVTTQEPEVAERSTLPLGTTAPGPTEVAQTPTPESLLTTTQDEPEVPVSGGPSGDFELQEETTQPDTANEVVAVEGAAAKPSPPLGTLPKGARPGLGLHDNAIDSGSSAAQLPQKSILERKEVLVAVIVGGVVGALFAAFLVTLLIYRMKKKDEGSYTLEEPKQASVTYQKPDKQEEFYA
